In paper PMC5633200:
These are yes or no findings as the source states them, for the method shown. Binding calls can cover weak binding; strength is not graded here. For some of these results: Binding seen in cells or lysates may run through a third protein.

Chains of the proteins cited; added tags and fusions are not shown. Lines headed by an entry give the natural chain unless they say otherwise; changes in a name come on top.
UniProt A0A290U614: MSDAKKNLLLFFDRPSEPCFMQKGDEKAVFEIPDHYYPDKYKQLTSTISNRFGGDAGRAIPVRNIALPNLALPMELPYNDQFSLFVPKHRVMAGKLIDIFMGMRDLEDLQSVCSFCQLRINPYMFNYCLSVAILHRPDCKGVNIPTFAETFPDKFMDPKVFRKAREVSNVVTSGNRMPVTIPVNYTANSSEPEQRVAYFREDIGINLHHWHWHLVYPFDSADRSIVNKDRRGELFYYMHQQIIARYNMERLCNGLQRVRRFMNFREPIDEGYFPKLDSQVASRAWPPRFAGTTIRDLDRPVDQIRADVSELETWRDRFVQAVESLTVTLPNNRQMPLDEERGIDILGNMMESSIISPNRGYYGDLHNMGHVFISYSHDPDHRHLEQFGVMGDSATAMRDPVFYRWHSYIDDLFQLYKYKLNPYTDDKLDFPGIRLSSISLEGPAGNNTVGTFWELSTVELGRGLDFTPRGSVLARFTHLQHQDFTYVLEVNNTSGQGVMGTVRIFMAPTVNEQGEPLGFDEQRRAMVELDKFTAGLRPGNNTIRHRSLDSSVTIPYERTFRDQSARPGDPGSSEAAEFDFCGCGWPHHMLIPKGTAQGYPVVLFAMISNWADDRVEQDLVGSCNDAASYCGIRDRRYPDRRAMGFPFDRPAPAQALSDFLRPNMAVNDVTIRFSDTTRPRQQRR

Columns and labels:
[1] = biological target: Helicoverpa armigera prophenoloxidase 2 (H. armigera (endogenous in larval hemolymph)) (UniProt Q2VIY6); assay: co-purification from hemolymph, SDS-PAGE and immunoblot; PPO purified from hemolymph of naive 5th instar larvae (ammonium sulfate, hydroxyapatite, Con A, Phenyl Sepharose, Superdex 200); SDS-PAGE and immunoblot with PPO1 and PPO2 antibodies
[2] = biological target: serpin-5, yeast two-hybrid fusion (H. armigera); assay: two-hybrid; yeast AH109 co-transformed with serpins in pGBK7 and cSPs in pGADT7; growth on SD-Leu-Trp-His medium with X-gal
[3] = biological target: serpin-9, yeast two-hybrid fusion (H. armigera); assay: as above

binding [3]	Substance	also measured
	Helicoverpa armigera prophenoloxidase 1 (from UniProt A0A290U614) (enzyme)	binding [1]: binds
	cSP4, yeast two-hybrid fusion (from UniProt A0A290U6G2) (enzyme)	binding [2]: binds
binds	cSP6, yeast two-hybrid fusion (from UniProt A0A290U627) (enzyme)	
binds	cSP29, yeast two-hybrid fusion (from UniProt A0A290U617) (enzyme)	
